Assay results from CN112646036A.
These are yes or no findings as the source states them, for the method shown. Some results given as binding are weak or reduced against the parent protein; the word gives no strength. Values belong to the binder of their own block, whether it stands above or below them.

Legend:
[1] = target: T1, CD23蛋白 (CD23 protein, low-affinity IgE receptor, as present in tissue samples) (UniProt P06734); test: immunohistochemistry on tonsil tissue sections, primary antibody 1 μg/mL
T1 sequence (looked up): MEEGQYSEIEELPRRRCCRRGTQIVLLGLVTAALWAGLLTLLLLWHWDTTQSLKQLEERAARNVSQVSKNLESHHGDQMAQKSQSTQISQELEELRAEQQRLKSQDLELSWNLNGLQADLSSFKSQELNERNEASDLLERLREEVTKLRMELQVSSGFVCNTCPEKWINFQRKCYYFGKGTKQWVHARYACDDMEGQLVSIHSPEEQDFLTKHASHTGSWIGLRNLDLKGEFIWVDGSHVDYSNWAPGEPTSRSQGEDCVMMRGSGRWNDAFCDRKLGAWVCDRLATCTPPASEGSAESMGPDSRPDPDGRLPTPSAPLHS

[2] = target: T1, CD23蛋白 (CD23 protein, low-affinity IgE receptor, as present in tissue samples); test: immunohistochemistry on colon cancer tissue sections, primary antibody 1 μg/mL
[3] = target: T1, CD23蛋白 (CD23 protein, low-affinity IgE receptor, as present in tissue samples); test: Western blot on tonsil tissue lysate

binding [1]: binds | binding [2]: binds
B1: 365A2D1抗CD23单克隆抗体 (anti-CD23 monoclonal antibody secreted by mouse hybridoma cell line 365A2D1) (antibody, V domains shown)
VH: EVQLQESGGGLVQPKGSLKLSCAASGYTFNTYAMHWVRQAPGKGLEWVARIRSKSNNYEPYYADSVKDRFTISRDDSQSILYLQMNNLKTEDTAMYYCVREYYDAMDYWGQGTSVTVSS
VL: EIVMTQAAPSVSVTPGESVSISCRSSQSLLHSNGNTYLYWFLQRPGQSPHLLISRVSNLASGVPDRFSGSGSGTAFTLRISRVEAEDVGVYYCMQGLEFPWTFGGGTKLEIK

binding [3]: binds
B2: recombinant anti-CD23 monoclonal antibody (365A2D1 VH/VL on mouse IgG1 and kappa constant regions, expressed in Expi-293F cells, Example 7) (antibody, V domains shown, not shown: a dimerising Fc or GST)
VH: B1 VH
VL: EIVMTQAAPSVSVTPGESVSISCRSSQSLLHSNGNTYLYWFLQRPGQSPHLLISRVSNLASGVPDRFSGSGSGTAFTLRISRVEAEDVGVYYCMQGLEFPWTFGGGTKLEIKR
